The results in this text go back to PMC7819943, “Rice protein-binding microarrays: a tool to detect cis-acting elements near promoter regions in rice”.

By UniProt entry, the sequences of proteins in these tests, tags left out.
UniProt Q0JBA9, entry or part of it: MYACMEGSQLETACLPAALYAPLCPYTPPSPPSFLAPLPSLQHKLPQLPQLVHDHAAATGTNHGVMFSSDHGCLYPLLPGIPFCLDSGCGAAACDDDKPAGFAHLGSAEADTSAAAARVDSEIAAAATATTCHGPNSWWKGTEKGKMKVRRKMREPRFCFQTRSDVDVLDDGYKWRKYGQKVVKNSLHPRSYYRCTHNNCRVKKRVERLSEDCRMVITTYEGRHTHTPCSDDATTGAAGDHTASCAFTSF

The list shows a part of the results.

This test addresses OsWRKY34 (Oryza sativa, UniProt Q0JBA9 1-250). The test can be described thus: protein-binding microarray (RPBM); PBS, 2% BSA, 51.3 ng/ul salmon testes DNA, 50 uM zinc acetate, 200 nM TF, 25 C, 1 h; high values mean tight binding. The following applies: protein: recombinant; tags: N-terminal polyhistidine and DsRed monomer fusion (pET32a); label: CyDye5-dUTP incorporated in the synthesized complementary strand; 3' TTTTT single-stranded linker to array surface; dsDNA, one strand shown. The procedure, abridged:
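Binding signal is defined as the fluorescence intensity of each feature in arbitrary units, read on an Axon 4000B scanner. Transcription factors with N-terminal polyhistidine and DsRed fusions came from E. coli BL21-CodonPlus and were purified on Ni–NTA. They were incubated at 200 nM for 1 h at 25 °C on a custom Agilent array that had been made double-stranded with Cy5-dUTP, with 50 µM zinc acetate present, and the array was washed.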
For the sequence “CCCTCGCCGCCGCCGCCACCGCCGCCTATGCCGCCGCCGCCGGAGTCACCTAGTGCAG”, the binding signal was 8130 fluorescence intensity (a.u.).
For the sequence “TCTTCAACACCATTGGTCATAGTTGTCGTCGCTTCAACCGCGGAGTCACCTAGTGCAG”, the binding signal is 8460 fluorescence intensity (a.u.).
“CACTTTGTTCTTTTATGATGTTTTATTTTGTTATTTTGGACGGAGTCACCTAGTGCAG”: the binding signal was 8210 fluorescence intensity (a.u.).
Take “CTTTGCAGCTCGCGACTTTGCAATTGCATGCCTTTACTTTCGGAGTCACCTAGTGCAG”: the binding signal was 10200 fluorescence intensity (a.u.).
For “CCCACTTCTCTCTCAATCTCTCTCTCTGCTAGGGTTTATCCGGAGTCACCTAGTGCAG”, the binding signal is 9900 fluorescence intensity (a.u.).
The result for “CCCCGTCCACAGCCACGCCGCCGAGCCATGCTGTGCATCTCGGAGTCACCTAGTGCAG” reads 8080 fluorescence intensity (a.u.); that for “TGGTTAGGCCAGTAATCAGTACTCCGTTATATCATCGACCCGGAGTCACCTAGTGCAG”, 9300 fluorescence intensity (a.u.); that for “TCTCCTCCTACGTTCTACTGGACTTGTGCTGCGAGGGGAGCGGAGTCACCTAGTGCAG”, 9790 fluorescence intensity (a.u.).
With “TTCTGACAATCCGACAAGCTGCCCGTGCTCTACTTGCAATCGGAGTCACCTAGTGCAG” the figure was 8500 fluorescence intensity (a.u.); with “CTTGGGCCTGGGTTGGACACGCGCTTCCTCTCCCAATTTGCGGAGTCACCTAGTGCAG”, 9260 fluorescence intensity (a.u.).
On to “CTTTGTTCAAACGAGGTTTGGACTGTTGTGGTTCATTAAACGGAGTCACCTAGTGCAG”, for which the binding signal was 10000 fluorescence intensity (a.u.).
With “TTCCGTTTCTGTTCCGTTTGGTTTTTCCTTGTTCTTTCGGCGGAGTCACCTAGTGCAG” the figure was 12900 fluorescence intensity (a.u.); with “CAATATCCATCGTGCACTGACGAAACCAGCTGCATTCTGCCGGAGTCACCTAGTGCAG”, 11100 fluorescence intensity (a.u.).
For “ATTTCTTGAACAGTTAAATACTTATAAATCCTTCACTTTTCGGAGTCACCTAGTGCAG”, the binding signal is 8050 fluorescence intensity (a.u.).
For “CTATTTACACGGTCATATAGAGTTTTGGATCCATCATCATCGGAGTCACCTAGTGCAG”, the binding signal was 8370 fluorescence intensity (a.u.).
Take “GTTTATGACCAGTCAATTTCGTGCCTGTTTTTTTTTTTTTCGGAGTCACCTAGTGCAG”: the binding signal was 13400 fluorescence intensity (a.u.).
With “AATGTATTTGTCTTATGTTAAATATATTACTACTCTTTTTCGGAGTCACCTAGTGCAG”, the binding signal was 8080 fluorescence intensity (a.u.).
Regarding “TACATGTTTTATAGAGAGCACCTTACTTTATCATTGCGGGCGGAGTCACCTAGTGCAG”, the binding signal was 9390 fluorescence intensity (a.u.).
In the case of “TTGTGGCCGTTACTCCAACCCTATCATACATGCGGAATATCGGAGTCACCTAGTGCAG”, the binding signal is 9880 fluorescence intensity (a.u.).
In the case of “ACTAACCCTAGCTCGCCTGGCGCCTCCTCGCGCAAACCCTCGGAGTCACCTAGTGCAG”, the binding signal is 10300 fluorescence intensity (a.u.).
Take “CCTCTTGTGTCTATCCATCAACATTGAACAAAGTTGTCCTCGGAGTCACCTAGTGCAG”: the binding signal was 8630 fluorescence intensity (a.u.).
Consider “ATGGGGTCTTCAGTTATTTTAGAAGTGGAAATTTTATAGTCGGAGTCACCTAGTGCAG”, for which the binding signal was 8250 fluorescence intensity (a.u.).
“TCATCATCATCGTCGTCGTCATCGTCTTCTTGAGCAAACTCGGAGTCACCTAGTGCAG”: the binding signal was 8610 fluorescence intensity (a.u.).
